The data set addresses FoxO3-GST (human) (UniProt O43524). Nature of the data set: EMSA. Particulars: 3 nM probe, positive control; 200 mM KCl, 200 mM MgCl2, 2% NP-40, 10% glycerol, 5 mM DTT; recombinant protein; protein details: GST; label: 32P. A general note: A gel shift assay detects complexes by their altered migration in electrophoresis.

Amino acid sequences for entries named in this document (tags omitted). A change or cut given only in a name is not applied to a line headed by its entry.
UniProt O43524: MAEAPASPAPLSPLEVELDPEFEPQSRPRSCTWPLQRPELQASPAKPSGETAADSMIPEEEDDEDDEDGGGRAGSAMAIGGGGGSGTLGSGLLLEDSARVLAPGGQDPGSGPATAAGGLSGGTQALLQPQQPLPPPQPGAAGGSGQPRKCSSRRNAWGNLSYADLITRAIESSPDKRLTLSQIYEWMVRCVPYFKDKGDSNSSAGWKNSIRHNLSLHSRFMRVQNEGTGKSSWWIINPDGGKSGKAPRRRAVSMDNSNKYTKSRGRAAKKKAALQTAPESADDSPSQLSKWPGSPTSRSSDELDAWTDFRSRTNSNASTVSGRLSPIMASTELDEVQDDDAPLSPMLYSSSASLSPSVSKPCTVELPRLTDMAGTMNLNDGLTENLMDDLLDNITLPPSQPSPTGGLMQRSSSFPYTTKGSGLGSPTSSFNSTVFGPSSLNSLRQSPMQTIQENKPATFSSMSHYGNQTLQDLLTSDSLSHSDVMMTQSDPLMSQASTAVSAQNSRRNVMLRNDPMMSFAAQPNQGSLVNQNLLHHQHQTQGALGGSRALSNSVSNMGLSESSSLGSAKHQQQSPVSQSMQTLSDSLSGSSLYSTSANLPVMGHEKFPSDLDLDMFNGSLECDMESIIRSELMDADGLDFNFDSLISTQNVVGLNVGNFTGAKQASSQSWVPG

We go through one sequence from paper PMC3082007, “The microRNA cluster miR-106b~25 regulates adult neural stem/progenitor cell proliferation and neuronal differentiation”.

For at least one entry, the source does not settle the construct or the ends of the probe. At least one verdict was read from the data and is not stated in words by the source.

On to “AAATAACACACACGTGTGCTGGTAAACAAGCGCGCCAGCC (double strand) [positive control FoxO site near the FoxO3 promoter]”, for which the binding result is listed as “binds”.
